Tested on: GABAA receptor α4 and β3 subunits
Test: Biotinylation: cell surface levels of GABAA receptor subunits in hippocampal slices
Assay type: cell-based, mouse
Settings: 100 nM, acute hippocampal slices
Procedure: Hippocampi were dissected out of acute slices from 8 to 12 week old C57/Bl6 mice and lysed with […] including: 20 mM Tris-HCl, 150 mM NaCl, 5 mM EDTA, 10 mM NaF, 2 mM Na3VO4, 10 mM pyrophosphate, 0.1% SDS and 1% Triton after drug treatment. The β3 subunit was isolated using immunoprecipitation with β3 antibodies, after correction for protein content and the specific activity of labeling. Results were attained by SDS/PAGE followed by autoradiography (Abramian et al., 2010). For biotinylation experiments hippocampi were dissected out of acute slices from 8 to 12 week old C57/Bl6 mice and incubated in artificial cerebrospinal fluid (ACSF) described above at 30° C. for 1 h for recovery before experimentation. Slices were then placed on ice and incubated for 30 min with 1 mg/mL NHS-SS-biotin (Pierce). Excess biotin was removed by a 50 mM glycine quenching buffer, followed by washing of slices three times in ice-cold ACSF. The tissue was snap frozen on dry ice for 5 min, thawed at 4° C. and lysed. The lysates were solubilized with 2% Triton at 4° C. on a rotating wheel for 1 h. The insoluble material was removed by centrifugation, and 350-500 μg of protein lysate were incubated with NeutrAvidin beads (Pierce) for 18-24 h at 4° C. […] Blots were then quantified using the CCD-based ChemiDoc XRS ? system. […]

CN1C(=O)CN=C(c2ccccc2)c2cc(Cl)ccc21 [diazepam]
GABAA-β3-containing receptors at the plasma membrane / cell surface stability of the β3 subunit: did not affect

From patent publication US20230116196A1, “METHOD OF TREATING CNS DISORDERS WITH NEU[…] GABAERGIC COMPOUNDS” (priority 2017, published 2023)
